Laboratory results: publication PMC7185714, “Structure and conformational cycle of a bacteriophage-encoded chaperonin” (PLoS ONE, 2020)
No constants are given. Whether binding was seen depends on the method and setting. Some binding calls cover weakened binding; strength is not graded here.

The chains behind the UniProt entries cited, without tags or fusion partners.
UniProt P0A6F5: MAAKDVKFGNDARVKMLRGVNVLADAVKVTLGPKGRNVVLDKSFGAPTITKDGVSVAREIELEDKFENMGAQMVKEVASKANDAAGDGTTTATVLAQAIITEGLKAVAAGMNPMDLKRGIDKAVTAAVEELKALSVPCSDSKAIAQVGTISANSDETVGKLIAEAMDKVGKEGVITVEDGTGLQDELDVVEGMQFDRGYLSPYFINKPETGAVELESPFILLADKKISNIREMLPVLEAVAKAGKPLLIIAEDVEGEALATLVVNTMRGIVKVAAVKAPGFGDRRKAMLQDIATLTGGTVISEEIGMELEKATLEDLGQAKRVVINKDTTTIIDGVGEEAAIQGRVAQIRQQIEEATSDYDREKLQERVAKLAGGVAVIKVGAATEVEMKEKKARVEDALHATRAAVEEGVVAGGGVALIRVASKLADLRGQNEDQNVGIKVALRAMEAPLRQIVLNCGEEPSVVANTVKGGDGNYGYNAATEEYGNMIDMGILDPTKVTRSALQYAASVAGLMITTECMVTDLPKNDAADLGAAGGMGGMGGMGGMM

Molecular target: GroEL from E. coli (E. coli, UniProt P0A6F5 1-548)
Experiment: SEC; Rho refolding reaction with GroEL/GroES in the absence of ATP, SEC, SDS-PAGE and anti-Rho immunoblot; both purified

B1: rhodanese (Rho), denatured in 6 M guanidinium-HCl (protein, UniProt P00586 1-297)
chain: MVHQVLYRALVSTKWLAESVRAGKVGPGLRVLDASWYSPGTREARKEYLERHVPGASFFDIEECRDKASPYEVMLPSEAGFADYVGSLGISNDTHVVVYDGDDLGSFYAPRVWWMFRVFGHRTVSVLNGGFRNWLKEGHPVTSEPSRPEPAIFKATLNRSLLKTYEQVLENLESKRFQLVDSRAQGRYLGTQPEPDAVGLDSGHIRGSVNMPFMNFLTEDGFEKSPEELRAMFEAKKVDLTKPLIATCRKGVTACHIALAAYLCGKPDVAIYDGSWFEWFHRAPPETWVSQGKGGKA
binding: binds
